The series is described as follows: In vivo pharmacokinetics and biodistribution of drugamer-released ciprofloxacin. The note with it: lung; single intratracheal dose, 20 mg/kg ciprofloxacin equivalent.

Drawing on paper PMC6223132 (Journal of controlled release : official journal of the …, 2018), this text covers AUC0-24 for one molecule.

As for `O=C(O)c1cn(C2CC2)c2cc(N3CCNCC3)c(F)cc2c1=O` [free ciprofloxacin, ciprofloxacin], the AUC0-24 was found to be 38 µg·h/g.
